The supplement of paper PMC6331611
± gives the standard deviation of the averaged measurements. The full ranking holds about 1,600 compounds; the median of “normalized growth (OD600, IQM-normalized) in LPM” is about 1, and the lowest 2% start at about 0.014. The list shows a part of the results.

system: Salmonella enterica serovar Typhimurium SL1344; assay: normalized growth (OD600, IQM-normalized) in LPM (fraction of plate interquartile mean); higher = more bacterial growth (less inhibition); settings: LPM pH 5.8; 10 µM; 16 h

| SMILES | normalized growth |
| --- | --- |
| CN1CCC(=C2c3ccccc3Sc3ccccc32)CC1 | 1.09 ± 0.096 |
| Nc1c2ccccc2nc2ccccc12 | 0.943 ± 0.018 |
| NS(=O)(=O)c1cc2c(cc1C(F)(F)F)NCNS2(=O)=O | 0.984 ± 0.035 |
| C=C(C)[C@H]1CC=C(C)CC1 | 0.978 ± 0.024 |
| NC(=O)CCCCC1CCSS1 (centres undefined) | 0.967 ± 0.061 |
| N[C@@H](Cc1c[nH]c2ccccc12)C(=O)O | 1.04 ± 0.095 |
| O=C(OOC(=O)c1ccccc1)c1ccccc1 | 1.08 ± 0.046 |
| CCC1(C)OC(=O)N(C)C1=O (centres undefined) | 1.05 ± 0.036 |
| CC(O)Cn1cnc2c1c(=O)n(C)c(=O)n2C (centres undefined) | 0.921 ± 0.031 |
| CS(=O)(=O)OCCCCOS(C)(=O)=O | 0.919 ± 0.042 |
| Cc1c(NC(=O)c2cccnc2)c(=O)n(-c2ccccc2)n1C | 1.03 ± 0.04 |
| CC[C@@H]1C(=O)OC[C@@H]1Cc1cncn1C | 0.92 ± 0.024 |
| CN1C(=O)CC[C@H]1c1cccnc1 | 1 ± 0.011 |
| c1ccc2c(CC3=NCCN3)cccc2c1 | 0.783 ± 0.058 |
| CC(=O)OCC(=O)[C@@]12OC(C)(C)O[C@@H]1C[C@H]1[C@@H]3C[C@H](F)C4=CC(=O)C=C[C@]4(C)[C@@]3(F)[C@@H](O)C[C@@]12C | 1.18 ± 0.12 |
| CCN(CC)CC(=O)Nc1c(C)cccc1C | 1.03 ± 0.045 |
| O=C1NS(=O)(=O)c2ccccc21 | 1.07 ± 0.012 |
| CC(=O)CC(c1ccccc1)c1c(O)c2ccccc2oc1=O (centres undefined) | 1.08 ± 0.036 |
| O=c1oc2c(O)c(O)cc3c(=O)oc4c(O)c(O)cc1c4c23 | 0.455 ± 0.031 |
| COc1cccc2c1C(=O)c1c(O)c3c(c(O)c1C2=O)C[C@@](O)(C(C)=O)C[C@@H]3O[C@H]1C[C@H](N)[C@H](O)[C@H](C)O1 | 0.946 ± 0.016 |
| Cc1cn([C@H]2C=C[C@@H](CO)O2)c(=O)[nH]c1=O | 1.1 ± 0.09 |
| CC(=O)NS(=O)(=O)c1ccc(N)cc1 | 0.99 ± 0.04 |
| C=CC1=C(C(=O)O)N2C(=O)[C@@H](NC(=O)/C(=N\O)c3csc(N)n3)[C@H]2SC1 | 0.0112 ± 0.00049 |
| CN1C(CCl)Nc2cc(Cl)c(S(N)(=O)=O)cc2S1(=O)=O (centres undefined) | 1.08 ± 0.033 |
| OCc1ccccc1O[C@@H]1O[C@H](CO)[C@@H](O)[C@H](O)[C@H]1O | 0.988 ± 0.065 |

| SMILES | normalized growth |
| --- | --- |
| Nc1cc(N2CCCCC2)nc(N)[n+]1[O-] | 1.01 ± 0.051 |
| C[C@]12CCC(=O)C=C1[C@@H]1C[C@@H]1[C@H]1[C@@H]3[C@@H]4C[C@@H]4[C@@]4(CCC(=O)O4)[C@@]3(C)CC[C@@H]12 | 1.07 ± 0.069 |
| O=C(O)c1ccccc1OP(=O)(O)O | 0.83 ± 0.1 |
| Cc1ncc([N+](=O)[O-])n1CC(C)O (centres undefined) | 1.05 ± 0.015 |
| C/C=C(/C(=C/C)c1ccc(O)cc1)c1ccc(O)cc1 | 1.04 ± 0.035 |
| CC1=C(/C=C/C(C)=C/C=C/C(C)=C/CO)C(C)(C)CCC1 | 0.731 ± 0.088 |
| CC(=O)NCCCCCC(=O)O | 1.11 ± 0.034 |
| O=c1n(CCCN2CCN(c3cccc(Cl)c3)CC2)nc2ccccn12 | 1.03 ± 0.052 |
| O=C(O)c1cc(=O)[nH]c(=O)[nH]1 | 1.02 ± 0.041 |
| C=C[C@H]1CN2CC[C@H]1C[C@H]2[C@H](O)c1ccnc2ccc(OC)cc12 | 1.03 ± 0.018 |
| CC1(C)S[C@@H]2[C@H](NC(=O)[C@H](N)c3ccccc3)C(=O)N2[C@H]1C(=O)O | 0.928 ± 0.07 |
| Cc1nc2ccccn2c(=O)c1CCN1CCC(C(=O)c2ccc(F)cc2)CC1 | 0.979 ± 0.039 |
| O=C(CCNNC(=O)c1ccncc1)NCc1ccccc1 | 1.067 ± 0.0068 |
| CC(C)(C)CC(C)(C)c1cc(Cc2cc(C(C)(C)CC(C)(C)C)cc(-n3nc4ccccc4n3)c2O)c(O)c(-n2nc3ccccc3n2)c1 | 1.01 ± 0.063 |
| NC(=O)c1cnccn1 | 1.01 ± 0.024 |
| CC(=O)O[C@H]1C(=O)[C@@]2(C)[C@H]([C@H](OC(=O)c3ccccc3)[C@]3(O)C[C@H](OC(=O)[C@H](O)[C@@H](NC(=O)c4ccccc4)c4ccccc4)C(C)=C1C3(C)C)[C@]1(OC(C)=O)CO[C@@H]1C[C@@H]2O | 0.882 ± 0.057 |
| O[C@H]1[C@H](O)[C@@H](O)[C@H](O)[C@@H](O)[C@H]1O | 1.02 ± 0.015 |
| CCCN(CCC)CCc1cccc2c1CC(=O)N2 | 0.919 ± 0.015 |
| COc1cccc2c1C(=O)c1c(O)c3c(c(O)c1C2=O)C[C@@](O)(C(=O)CO)C[C@@H]3O[C@H]1C[C@H](N)[C@@H](O)[C@H](C)O1 | 0.937 ± 0.011 |
| CC(=O)N(c1onc(C)c1C)S(=O)(=O)c1ccc(N)cc1 | 1.08 ± 0.046 |
| Cc1cc(O)cc(C)c1Cl | 0.985 ± 0.23 |
| Oc1cccc(O)c1 | 1.05 ± 0.021 |
| CC(N)CCCC(C)(C)O (centres undefined) | 1.01 ± 0.026 |
| CN1CCCN=C1/C=C/c1cccc(O)c1 | 1.02 ± 0.11 |

Taken from above:
normalized growth, `CN1CCCN=C1/C=C/c1cccc(O)c1` reads 1.02 ± 0.11
normalized growth, `O=c1n(CCCN2CCN(c3cccc(Cl)c3)CC2)nc2ccccn12` reads 1.03 ± 0.052
